Experimental findings from publication PMC7181604, “Arabidopsis FHY3 and FAR1 integrate light and strigolactone signaling to regulate branching” are described below.

Construct, isoform or probe ends are uncertain for at least one entry. A weaker result is weaker than the reference pair of the same experiment. Where a protein sequence is shown, tags need not be part of it.

The target of data set [1] is T1, GST-SPL9SBP (Arabidopsis thaliana) (UniProt Q700W2).
T1 sequence (looked up, limits assumed): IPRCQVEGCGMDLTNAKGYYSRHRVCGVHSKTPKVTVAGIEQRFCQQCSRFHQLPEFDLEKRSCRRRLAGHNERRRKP
Nature of the data set: EMSA. Particulars: plus His-FHY3-I (MBP control has no effect); Beyotime EMSA kit, manufacturer's protocol (binding buffer not stated); proteins stored in 5 mM Tris-Cl pH 8.0, 50 mM KCl; recombinant protein; protein details: GST (N-terminal, pGEX-4T-1); label: biotin. On the technique in general: Mobility shift assays separate free from complexed probe on a gel.

Data set [2] addresses T2, GST-SPL15SBP (Arabidopsis thaliana) (UniProt Q9M2Q6).
T2 sequence (looked up, limits assumed): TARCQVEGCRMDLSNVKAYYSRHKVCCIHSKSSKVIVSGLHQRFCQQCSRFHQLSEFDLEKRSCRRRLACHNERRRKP
The data set is described as follows: EMSA. To be noted: plus His-FHY3-I (MBP control has no effect); Beyotime EMSA kit, manufacturer's protocol (binding buffer not stated); proteins stored in 5 mM Tris-Cl pH 8.0, 50 mM KCl; recombinant protein; protein details: GST (N-terminal, pGEX-4T-1); label: biotin.

“GAAGAAGCCAGCGAGTCCAACCATTATAGTCATGTGGTCCTCCTGATAATTGCAGGCCTA (double strand) [BRC1 promoter EMSA probe (PB01/PB02)]”: the binding result in data set [1] and in data set [2] was “binds more weakly” each time.
